Results are given in words; binding and its absence hold for the method and conditions named. In cells and extracts the contact can be indirect. These calls come from enrichment with a bait or labelling near it, and not all partners need be listed. For some of these results: Sequences can lack the tags named with a protein.

Amino acid sequences for entries named in this document (tags omitted). Residues count along the entry.
UniProt P31040, residues 43-664: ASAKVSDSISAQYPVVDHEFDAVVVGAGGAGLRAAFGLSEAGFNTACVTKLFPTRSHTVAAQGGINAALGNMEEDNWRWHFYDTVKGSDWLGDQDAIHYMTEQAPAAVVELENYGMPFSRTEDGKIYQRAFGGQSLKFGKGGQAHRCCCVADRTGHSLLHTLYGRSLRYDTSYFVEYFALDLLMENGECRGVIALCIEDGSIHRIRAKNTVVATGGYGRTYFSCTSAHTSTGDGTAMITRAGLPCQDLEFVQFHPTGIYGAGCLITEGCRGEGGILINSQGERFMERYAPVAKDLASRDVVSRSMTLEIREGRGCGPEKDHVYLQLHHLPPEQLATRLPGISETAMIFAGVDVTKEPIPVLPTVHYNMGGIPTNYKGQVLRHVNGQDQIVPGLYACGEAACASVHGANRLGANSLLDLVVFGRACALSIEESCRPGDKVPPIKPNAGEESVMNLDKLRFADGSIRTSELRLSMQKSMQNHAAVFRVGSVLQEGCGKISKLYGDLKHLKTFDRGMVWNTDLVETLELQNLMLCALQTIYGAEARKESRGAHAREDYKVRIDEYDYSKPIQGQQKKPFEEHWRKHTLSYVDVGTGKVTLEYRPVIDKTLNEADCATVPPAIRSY
UniProt P20930: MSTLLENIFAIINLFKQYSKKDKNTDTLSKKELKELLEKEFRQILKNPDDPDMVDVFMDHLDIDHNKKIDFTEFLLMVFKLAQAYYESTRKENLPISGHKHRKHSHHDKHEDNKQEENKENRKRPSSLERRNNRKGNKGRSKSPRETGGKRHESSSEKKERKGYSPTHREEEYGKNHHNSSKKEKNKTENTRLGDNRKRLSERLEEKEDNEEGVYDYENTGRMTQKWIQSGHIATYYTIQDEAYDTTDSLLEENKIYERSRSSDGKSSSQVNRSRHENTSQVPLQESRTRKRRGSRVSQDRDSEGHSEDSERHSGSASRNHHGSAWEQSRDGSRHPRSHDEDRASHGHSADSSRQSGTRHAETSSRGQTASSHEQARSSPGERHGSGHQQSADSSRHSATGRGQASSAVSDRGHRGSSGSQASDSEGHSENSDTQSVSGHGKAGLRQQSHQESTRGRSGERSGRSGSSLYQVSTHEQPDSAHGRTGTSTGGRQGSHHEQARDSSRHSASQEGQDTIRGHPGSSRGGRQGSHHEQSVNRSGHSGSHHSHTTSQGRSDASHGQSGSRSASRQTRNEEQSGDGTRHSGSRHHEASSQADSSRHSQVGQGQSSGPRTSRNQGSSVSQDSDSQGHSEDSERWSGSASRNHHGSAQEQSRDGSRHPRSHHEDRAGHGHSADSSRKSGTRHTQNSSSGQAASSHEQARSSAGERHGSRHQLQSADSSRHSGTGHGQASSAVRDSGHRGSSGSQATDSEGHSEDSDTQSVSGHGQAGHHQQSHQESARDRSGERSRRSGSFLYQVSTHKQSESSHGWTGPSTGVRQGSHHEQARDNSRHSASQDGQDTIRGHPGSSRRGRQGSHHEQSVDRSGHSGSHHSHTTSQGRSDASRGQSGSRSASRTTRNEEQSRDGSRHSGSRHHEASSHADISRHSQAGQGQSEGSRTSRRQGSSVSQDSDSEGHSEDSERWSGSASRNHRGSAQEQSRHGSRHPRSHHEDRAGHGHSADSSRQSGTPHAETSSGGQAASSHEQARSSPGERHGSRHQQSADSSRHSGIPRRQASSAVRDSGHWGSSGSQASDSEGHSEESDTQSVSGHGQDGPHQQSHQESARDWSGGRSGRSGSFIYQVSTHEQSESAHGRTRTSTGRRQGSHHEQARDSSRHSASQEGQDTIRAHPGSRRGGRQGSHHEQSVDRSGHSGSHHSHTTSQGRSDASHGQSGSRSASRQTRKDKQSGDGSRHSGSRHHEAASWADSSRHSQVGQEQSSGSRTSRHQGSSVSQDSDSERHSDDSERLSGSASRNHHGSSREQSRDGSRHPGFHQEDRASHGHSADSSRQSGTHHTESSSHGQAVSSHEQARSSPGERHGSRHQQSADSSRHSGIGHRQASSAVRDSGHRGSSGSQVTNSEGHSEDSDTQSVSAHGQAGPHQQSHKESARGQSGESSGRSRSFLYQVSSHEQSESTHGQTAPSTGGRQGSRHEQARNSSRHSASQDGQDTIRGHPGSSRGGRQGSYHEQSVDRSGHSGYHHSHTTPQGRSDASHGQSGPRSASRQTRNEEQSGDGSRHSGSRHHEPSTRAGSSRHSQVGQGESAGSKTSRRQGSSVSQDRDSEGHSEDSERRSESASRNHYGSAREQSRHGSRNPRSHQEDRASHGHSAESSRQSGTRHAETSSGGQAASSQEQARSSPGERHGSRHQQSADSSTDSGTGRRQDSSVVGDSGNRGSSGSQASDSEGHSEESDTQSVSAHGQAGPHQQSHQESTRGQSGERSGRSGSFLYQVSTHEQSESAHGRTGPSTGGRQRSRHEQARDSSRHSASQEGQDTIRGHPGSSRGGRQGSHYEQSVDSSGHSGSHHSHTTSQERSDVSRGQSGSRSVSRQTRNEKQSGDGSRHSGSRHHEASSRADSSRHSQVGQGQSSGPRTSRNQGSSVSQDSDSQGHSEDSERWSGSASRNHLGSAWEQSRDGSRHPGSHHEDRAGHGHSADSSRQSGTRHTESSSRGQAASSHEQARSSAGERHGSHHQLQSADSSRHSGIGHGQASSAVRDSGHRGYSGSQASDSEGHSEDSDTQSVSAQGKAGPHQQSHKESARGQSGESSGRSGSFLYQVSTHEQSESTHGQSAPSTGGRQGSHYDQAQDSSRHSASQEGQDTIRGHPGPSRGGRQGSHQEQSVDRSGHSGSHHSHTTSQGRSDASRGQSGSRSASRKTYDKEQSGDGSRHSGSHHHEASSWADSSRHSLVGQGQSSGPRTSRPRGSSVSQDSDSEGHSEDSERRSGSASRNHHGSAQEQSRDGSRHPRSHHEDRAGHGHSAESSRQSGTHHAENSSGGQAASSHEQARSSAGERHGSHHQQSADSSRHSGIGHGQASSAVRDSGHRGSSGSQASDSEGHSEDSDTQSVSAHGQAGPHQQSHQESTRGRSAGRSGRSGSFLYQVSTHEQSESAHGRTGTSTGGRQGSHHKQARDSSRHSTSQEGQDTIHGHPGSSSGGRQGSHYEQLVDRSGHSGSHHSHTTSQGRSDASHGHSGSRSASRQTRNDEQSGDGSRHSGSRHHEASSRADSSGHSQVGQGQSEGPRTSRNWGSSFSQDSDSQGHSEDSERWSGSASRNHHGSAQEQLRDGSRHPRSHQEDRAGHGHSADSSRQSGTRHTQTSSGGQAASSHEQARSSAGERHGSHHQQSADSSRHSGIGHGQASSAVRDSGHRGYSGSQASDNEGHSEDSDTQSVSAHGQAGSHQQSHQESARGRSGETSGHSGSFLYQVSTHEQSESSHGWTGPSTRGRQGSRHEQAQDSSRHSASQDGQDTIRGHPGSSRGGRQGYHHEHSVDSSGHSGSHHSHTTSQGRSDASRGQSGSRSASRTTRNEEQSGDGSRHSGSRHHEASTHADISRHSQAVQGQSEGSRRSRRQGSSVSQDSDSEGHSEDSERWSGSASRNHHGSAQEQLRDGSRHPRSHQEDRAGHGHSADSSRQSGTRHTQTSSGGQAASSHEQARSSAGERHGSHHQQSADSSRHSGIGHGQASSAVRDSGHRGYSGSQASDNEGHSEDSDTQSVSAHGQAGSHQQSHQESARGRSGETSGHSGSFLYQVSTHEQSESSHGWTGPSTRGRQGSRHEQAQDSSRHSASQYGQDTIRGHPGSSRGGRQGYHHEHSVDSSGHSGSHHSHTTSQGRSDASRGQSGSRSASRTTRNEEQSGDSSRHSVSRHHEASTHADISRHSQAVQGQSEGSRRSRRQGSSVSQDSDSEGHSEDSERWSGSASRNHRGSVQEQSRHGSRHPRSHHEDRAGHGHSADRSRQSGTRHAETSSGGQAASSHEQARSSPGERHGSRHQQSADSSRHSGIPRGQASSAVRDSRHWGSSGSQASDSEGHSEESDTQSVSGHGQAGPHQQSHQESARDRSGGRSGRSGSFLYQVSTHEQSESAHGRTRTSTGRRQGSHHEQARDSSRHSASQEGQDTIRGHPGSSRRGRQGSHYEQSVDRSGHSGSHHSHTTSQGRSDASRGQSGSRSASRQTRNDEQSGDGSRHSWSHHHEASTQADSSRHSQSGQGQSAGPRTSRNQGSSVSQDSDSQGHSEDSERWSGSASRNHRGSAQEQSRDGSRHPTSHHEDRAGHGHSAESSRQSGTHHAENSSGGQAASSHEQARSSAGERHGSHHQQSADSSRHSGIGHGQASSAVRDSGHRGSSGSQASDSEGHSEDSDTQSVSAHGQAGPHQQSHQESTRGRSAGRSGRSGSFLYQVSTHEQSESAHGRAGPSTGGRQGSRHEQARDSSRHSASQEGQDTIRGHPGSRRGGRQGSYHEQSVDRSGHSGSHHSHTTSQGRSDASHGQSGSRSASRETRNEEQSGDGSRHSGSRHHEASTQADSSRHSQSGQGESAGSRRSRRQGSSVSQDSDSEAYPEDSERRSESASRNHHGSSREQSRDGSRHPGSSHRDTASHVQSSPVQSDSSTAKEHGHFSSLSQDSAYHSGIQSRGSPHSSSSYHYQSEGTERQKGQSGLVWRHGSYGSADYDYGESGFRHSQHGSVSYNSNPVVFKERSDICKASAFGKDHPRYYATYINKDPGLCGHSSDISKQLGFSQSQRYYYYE

This passage reports binding results from publication PMC12646662.

In experiment [1] the target is T1, ZDHHC13, bait of the IP with mass spectrometry in melanoma cells (UniProt Q8IUH4).
T1 sequence: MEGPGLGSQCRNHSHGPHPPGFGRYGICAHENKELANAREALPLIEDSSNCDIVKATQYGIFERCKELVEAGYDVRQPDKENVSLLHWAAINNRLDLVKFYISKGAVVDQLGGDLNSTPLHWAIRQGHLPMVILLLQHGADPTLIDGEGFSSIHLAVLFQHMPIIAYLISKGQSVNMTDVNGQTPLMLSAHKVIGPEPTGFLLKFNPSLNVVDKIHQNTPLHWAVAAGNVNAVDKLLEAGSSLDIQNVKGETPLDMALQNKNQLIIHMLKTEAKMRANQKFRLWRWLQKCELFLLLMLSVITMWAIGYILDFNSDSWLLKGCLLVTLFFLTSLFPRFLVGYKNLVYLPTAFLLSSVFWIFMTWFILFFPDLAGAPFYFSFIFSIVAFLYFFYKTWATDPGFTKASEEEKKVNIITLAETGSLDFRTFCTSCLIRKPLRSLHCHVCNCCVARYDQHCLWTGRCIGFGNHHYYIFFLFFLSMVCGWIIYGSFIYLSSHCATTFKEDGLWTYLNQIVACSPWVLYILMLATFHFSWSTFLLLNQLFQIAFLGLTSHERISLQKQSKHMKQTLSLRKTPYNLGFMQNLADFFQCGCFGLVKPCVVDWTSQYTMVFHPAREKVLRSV
As to the kind of experiment: affinity purification with mass spectrometry; IP of ZDHHC13 followed by mass spectrometry in melanoma cells.

Experiment [2] concerns the target T2, Flag-CTNND1 C618S, stably expressed in SK-Mel-28 cells (UniProt O60716).
T2 sequence: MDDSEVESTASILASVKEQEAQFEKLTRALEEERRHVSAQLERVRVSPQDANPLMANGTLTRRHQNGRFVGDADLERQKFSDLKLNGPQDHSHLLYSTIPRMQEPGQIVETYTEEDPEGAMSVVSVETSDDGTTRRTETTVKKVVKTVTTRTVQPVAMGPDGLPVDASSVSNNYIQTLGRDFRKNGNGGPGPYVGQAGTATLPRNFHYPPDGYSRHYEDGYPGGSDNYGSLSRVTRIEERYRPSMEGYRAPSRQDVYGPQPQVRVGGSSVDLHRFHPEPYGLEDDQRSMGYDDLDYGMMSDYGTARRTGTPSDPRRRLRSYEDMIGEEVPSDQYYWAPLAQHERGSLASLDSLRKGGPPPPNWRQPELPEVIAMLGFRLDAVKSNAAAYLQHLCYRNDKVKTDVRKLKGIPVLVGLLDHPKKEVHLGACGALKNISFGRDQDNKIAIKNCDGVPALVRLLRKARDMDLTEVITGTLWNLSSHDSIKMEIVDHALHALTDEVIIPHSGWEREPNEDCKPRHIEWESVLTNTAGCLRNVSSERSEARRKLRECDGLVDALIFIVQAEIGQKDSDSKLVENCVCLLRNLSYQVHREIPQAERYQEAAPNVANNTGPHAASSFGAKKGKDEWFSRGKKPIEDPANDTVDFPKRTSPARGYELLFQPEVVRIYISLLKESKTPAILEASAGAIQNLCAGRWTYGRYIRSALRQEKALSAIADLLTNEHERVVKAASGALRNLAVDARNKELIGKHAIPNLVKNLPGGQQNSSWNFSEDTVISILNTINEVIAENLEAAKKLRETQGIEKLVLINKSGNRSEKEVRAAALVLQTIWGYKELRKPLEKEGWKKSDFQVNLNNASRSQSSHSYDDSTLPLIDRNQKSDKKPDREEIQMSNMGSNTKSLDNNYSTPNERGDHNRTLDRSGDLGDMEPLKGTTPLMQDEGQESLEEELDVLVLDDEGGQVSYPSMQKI
Nature of the experiment: affinity purification with mass spectrometry; Flag-CTNND1 complexes from SK-Mel-28 cells expressing WT or C618S CTNND1.

In the case of “succinate dehydrogenase subunit A (SDHA) (from UniProt P31040 43-664) (enzyme)”, the binding entry in experiment [1] was “binds”.

For “filaggrin (FLG) (from UniProt P20930 1-4061)”, the binding entry in experiment [2] is “binds”.

B1: plakophilin-1 (PKP1) (protein, UniProt Q13835 1-747)
chain: MNHSPLKTALAYECFQDQDNSTLALPSDQKMKTGTSGRQRVQEQVMMTVKRQKSKSSQSSTLSHSNRGSMYDGLADNYNYGTTSRSSYYSKFQAGNGSWGYPIYNGTLKREPDNRRFSSYSQMENWSRHYPRGSCNTTGAGSDICFMQKIKASRSEPDLYCDPRGTLRKGTLGSKGQKTTQNRYSFYSTCSGQKAIKKCPVRPPSCASKQDPVYIPPISCNKDLSFGHSRASSKICSEDIECSGLTIPKAVQYLSSQDEKYQAIGAYYIQHTCFQDESAKQQVYQLGGICKLVDLLRSPNQNVQQAAAGALRNLVFRSTTNKLETRRQNGIREAVSLLRRTGNAEIQKQLTGLLWNLSSTDELKEELIADALPVLADRVIIPFSGWCDGNSNMSREVVDPEVFFNATGCLRKRLGMRELLALVPQRATSSRVNLSSADAGRQTMRNYSGLIDSLMAYVQNCVAASRCDDKSVENCMCVLHNLSYRLDAEVPTRYRQLEYNARNAYTEKSSTGCFSNKSDKMMNNNYDCPLPEEETNPKGSGWLYHSDAIRTYLNLMGKSKKDATLEACAGALQNLTASKGLMSSGMSQLIGLKEKGLPQIARLLQSGNSDVVRSGASLLSNMSRHPLLHRVMGNQVFPEVTRLLTSHTGNTSNSEDILSSACYTVRNLMASQPQLAKQYFSSSMLNNIINLCRSSASPKAAEAARLLLSDMWSSKELQGVLRQQGFDRNMLGTLAGANSLRNFTSRF
Consider B1, for which the binding entry in experiment [2] is reported as “binds”.

B2: transglutaminase 1 (TGM1) (protein, UniProt P22735 1-817)
chain: MMDGPRSDVGRWGGNPLQPPTTPSPEPEPEPDGRSRRGGGRSFWARCCGCCSCRNAADDDWGPEPSDSRGRGSSSGTRRPGSRGSDSRRPVSRGSGVNAAGDGTIREGMLVVNGVDLLSSRSDQNRREHHTDEYEYDELIVRRGQPFHMLLLLSRTYESSDRITLELLIGNNPEVGKGTHVIIPVGKGGSGGWKAQVVKASGQNLNLRVHTSPNAIIGKFQFTVRTQSDAGEFQLPFDPRNEIYILFNPWCPEDIVYVDHEDWRQEYVLNESGRIYYGTEAQIGERTWNYGQFDHGVLDACLYILDRRGMPYGGRGDPVNVSRVISAMVNSLDDNGVLIGNWSGDYSRGTNPSAWVGSVEILLSYLRTGYSVPYGQCWVFAGVTTTVLRCLGLATRTVTNFNSAHDTDTSLTMDIYFDENMKPLEHLNHDSVWNFHVWNDCWMKRPDLPSGFDGWQVVDATPQETSSGIFCCGPCSVESIKNGLVYMKYDTPFIFAEVNSDKVYWQRQDDGSFKIVYVEEKAIGTLIVTKAISSNMREDITYLYKHPEGSDAERKAVETAAAHGSKPNVYANRGSAEDVAMQVEAQDAVMGQDLMVSVMLINHSSSRRTVKLHLYLSVTFYTGVSGTIFKETKKEVELAPGASDRVTMPVAYKEYRPHLVDQGAMLLNVSGHVKESGQVLAKQHTFRLRTPDLSLTLLGAAVVGQECEVQIVFKNPLPVTLTNVVFRLEGSGLQRPKILNVGDIGGNETVTLRQSFVPVRPGPRQLIASLDSPQLSQVHGVIQVDVAPAPGDGGFFSDAGGDSHLGETIPMASRGGA
For B2, the binding result in experiment [2] is on record as “binds”.
